Experiment [1] addresses T1, Enp1 fused to the Gal4 DNA-binding domain (S. cerevisiae) (UniProt P38333).
T1 sequence: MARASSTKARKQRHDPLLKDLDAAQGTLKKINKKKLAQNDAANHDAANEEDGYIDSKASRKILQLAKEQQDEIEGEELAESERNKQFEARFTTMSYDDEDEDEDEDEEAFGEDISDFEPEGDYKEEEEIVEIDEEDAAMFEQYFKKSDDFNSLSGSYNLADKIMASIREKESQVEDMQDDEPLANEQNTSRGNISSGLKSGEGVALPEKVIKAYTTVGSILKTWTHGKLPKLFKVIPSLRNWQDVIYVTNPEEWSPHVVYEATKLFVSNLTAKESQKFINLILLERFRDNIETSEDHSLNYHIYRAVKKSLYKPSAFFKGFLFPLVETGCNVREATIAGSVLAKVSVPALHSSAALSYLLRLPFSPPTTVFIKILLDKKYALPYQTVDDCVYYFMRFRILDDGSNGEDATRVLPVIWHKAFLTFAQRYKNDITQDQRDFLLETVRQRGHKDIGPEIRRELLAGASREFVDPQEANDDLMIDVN
Description: two-hybrid; baits fused to the GAL4 DNA-binding domain, preys fused to the GAL4 activation domain, co-transformed into reporter strain PJ69-4A; ten-fold serial dilutions spotted on SDC-Trp-Leu, SDC-Trp-Leu-His (growth: weak interaction) and SDC-Trp-Leu-Ade (growth: strong interaction).

In experiment [2] the target is T2, C-terminally TAP-tagged Tsr1 (S. cerevisiae), Q07381.
T2 chain: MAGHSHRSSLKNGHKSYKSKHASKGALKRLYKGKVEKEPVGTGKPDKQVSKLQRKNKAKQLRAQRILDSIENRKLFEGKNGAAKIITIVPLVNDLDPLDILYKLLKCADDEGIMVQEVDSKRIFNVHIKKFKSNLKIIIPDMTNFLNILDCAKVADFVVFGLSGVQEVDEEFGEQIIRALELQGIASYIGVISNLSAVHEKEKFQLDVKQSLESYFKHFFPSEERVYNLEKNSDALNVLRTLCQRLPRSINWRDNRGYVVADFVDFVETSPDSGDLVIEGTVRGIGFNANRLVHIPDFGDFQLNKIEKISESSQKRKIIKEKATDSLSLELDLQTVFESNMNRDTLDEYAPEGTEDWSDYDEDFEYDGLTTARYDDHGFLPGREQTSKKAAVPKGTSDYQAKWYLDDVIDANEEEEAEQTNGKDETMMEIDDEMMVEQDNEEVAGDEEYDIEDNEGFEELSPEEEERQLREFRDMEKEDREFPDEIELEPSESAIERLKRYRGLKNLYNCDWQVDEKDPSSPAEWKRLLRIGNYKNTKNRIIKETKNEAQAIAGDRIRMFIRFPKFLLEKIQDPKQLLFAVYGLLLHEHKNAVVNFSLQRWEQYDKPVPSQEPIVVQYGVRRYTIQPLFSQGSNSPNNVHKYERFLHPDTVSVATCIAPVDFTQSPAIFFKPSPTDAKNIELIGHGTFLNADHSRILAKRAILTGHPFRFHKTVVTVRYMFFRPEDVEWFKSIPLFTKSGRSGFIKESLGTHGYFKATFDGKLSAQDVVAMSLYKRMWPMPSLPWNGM
The experiment is described as follows: cryo-EM structure; pre-40S particles from rps20Δloop cells purified via Tsr1-TAP (lysis buffer with 5 mM MgCl2) and a 10–30% sucrose gradient; single particle analysis, classes C1-S20Δloop (3.47 Å) and C2-S20Δloop (3.79 Å); the partners stand in one ribonucleoprotein particle. Conditions: remark: other sources report otherwise.

The target of experiment [3] is T3, Ltv1 fused to the Gal4 activation domain (S. cerevisiae) (UniProt P34078).
T3 sequence: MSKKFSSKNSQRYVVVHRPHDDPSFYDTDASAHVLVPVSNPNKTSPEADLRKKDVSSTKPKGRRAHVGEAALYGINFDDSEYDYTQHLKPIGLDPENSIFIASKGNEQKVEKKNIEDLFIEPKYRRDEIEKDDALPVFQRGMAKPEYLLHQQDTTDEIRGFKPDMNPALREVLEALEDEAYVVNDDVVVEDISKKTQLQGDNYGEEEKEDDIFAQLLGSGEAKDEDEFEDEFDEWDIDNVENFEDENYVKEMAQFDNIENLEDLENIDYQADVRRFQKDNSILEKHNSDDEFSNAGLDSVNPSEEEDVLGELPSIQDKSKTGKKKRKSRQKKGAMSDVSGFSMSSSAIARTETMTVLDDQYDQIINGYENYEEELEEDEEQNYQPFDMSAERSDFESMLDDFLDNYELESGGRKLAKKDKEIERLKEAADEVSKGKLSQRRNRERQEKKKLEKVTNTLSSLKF
Description: two-hybrid; Y2H strains with Hrr25(1–394).K38R-BD and Ltv1 constructs-AD, transformed with empty plasmid or a URA3 plasmid for ENP1 overexpression under the ADH1 promoter; spotted on SDC-Leu-Trp-Ura, SDC-His-Leu-Trp-Ura and SDC-Ade-Leu-Trp-Ura.

Consider five molecules from publication PMC6588571.

These are yes or no findings as the source states them, for the method shown. Some results given as binding are weak or reduced against the parent protein; the word gives no strength. Tags and fused reporters may be left off the sequences shown.

B1: Ltv1 fragment aa 354–412 fused to the Gal4 activation domain (domain or fragment, UniProt P34078 354-412)
chain: MTVLDDQYDQIINGYENYEEELEEDEEQNYQPFDMSAERSDFESMLDDFLDNYELESGG
B1: the binding result in experiment [1] is on record as “binds”.

B2: Rps3 (endogenous), P05750 1-240 (protein)
chain: MVALISKKRKLVADGVFYAELNEFFTRELAEEGYSGVEVRVTPTKTEVIIRATRTQDVLGENGRRINELTLLVQKRFKYAPGTIVLYAERVQDRGLSAVAQAESMKFKLLNGLAIRRAAYGVVRYVMESGAKGCEVVVSGKLRAARAKAMKFADGFLIHSGQPVNDFIDTATRHVLMRQGVLGIKVKIMRDPAKSRTGPKALPDAVTIIEPKEEEPILAPSVKDYRPAEETEAQAEPVEA
Take B2: the binding entry in experiment [2] was “binds”.

B3: Ltv1 fragment aa 218–271 fused to the Gal4 activation domain (domain or fragment, UniProt P34078 218-271)
chain: GSGEAKDEDEFEDEFDEWDIDNVENFEDENYVKEMAQFDNIENLEDLENIDYQA
B3: the binding result in experiment [1] is on record as “binds”.

B4: Enp1 overexpressed under control of the ADH1 promoter (protein, UniProt P38333 1-483)
chain: MARASSTKARKQRHDPLLKDLDAAQGTLKKINKKKLAQNDAANHDAANEEDGYIDSKASRKILQLAKEQQDEIEGEELAESERNKQFEARFTTMSYDDEDEDEDEDEEAFGEDISDFEPEGDYKEEEEIVEIDEEDAAMFEQYFKKSDDFNSLSGSYNLADKIMASIREKESQVEDMQDDEPLANEQNTSRGNISSGLKSGEGVALPEKVIKAYTTVGSILKTWTHGKLPKLFKVIPSLRNWQDVIYVTNPEEWSPHVVYEATKLFVSNLTAKESQKFINLILLERFRDNIETSEDHSLNYHIYRAVKKSLYKPSAFFKGFLFPLVETGCNVREATIAGSVLAKVSVPALHSSAALSYLLRLPFSPPTTVFIKILLDKKYALPYQTVDDCVYYFMRFRILDDGSNGEDATRVLPVIWHKAFLTFAQRYKNDITQDQRDFLLETVRQRGHKDIGPEIRRELLAGASREFVDPQEANDDLMIDVN
Take B4: the binding result in experiment [3] was “binds”.

B5: Dim1 (endogenous), P41819 1-318 (enzyme)
chain: MGKAAKKKYSGATSSKQVSAEKHLSSVFKFNTDLGQHILKNPLVAQGIVDKAQIRPSDVVLEVGPGTGNLTVRILEQAKNVVAVEMDPRMAAELTKRVRGTPVEKKLEIMLGDFMKTELPYFDICISNTPYQISSPLVFKLINQPRPPRVSILMFQREFALRLLARPGDSLYCRLSANVQMWANVTHIMKVGKNNFRPPPQVESSVVRLEIKNPRPQVDYNEWDGLLRIVFVRKNRTISAGFKSTTVMDILEKNYKTFLAMNNEMVDDTKGSMHDVVKEKIDTVLKETDLGDKRAGKCDQNDFLRLLYAFHQVGIHFS
Regarding B5, the binding entry in experiment [2] was “binds”.
